Test results: article PMC6661308 (2019)

Assay: general procedure: Fmoc solid-phase peptide synthesis; 2-chlorotrityl chloride [(2-Cl) Trt] resin, substitution 1.4 mmol/g; HOBt/DIC/DIPEA; HATU/DIPEA for Boc-HYNIC
Settings: whole synthesis

Question: For “HYNIC-cyclo (Cys^1-Gly^2-Ala^3-Gly^4-His^5-Val^6-Pro^7-Cys^8)-Tyr^9-D-Tyr^10-GABA^11-D-Phe^12-yr^13-Gly^14”, which isolated yield is on record?
Answer: 40%

Question: What about the “final HPLC purity” value (280 nm) of the same substance?
Answer: 98.8%
